Laboratory results from PubChem BioAssay AID1439 (NMMLSC, 2008).
“And” between values parts separate entries of the source, which are not always exact repeats. Equal entries are not always repeated. Hit rate of the full screen: of about 220,000 compounds, about 770 (0.35%) were called active. This list was built around the results that the source calls inconclusive (neither active nor inactive); the mix of calls is not that of the screen. Cut-off read from the data, not from the text of the source: active = binding response below about 49% or above about 150%; inconclusive = no clear call, values can overlap the other calls; inactive = in between.

Protein sequences, listed by entry. Tags and fused reporters are not part of them.
UniProt P09471, whole entry, looked up: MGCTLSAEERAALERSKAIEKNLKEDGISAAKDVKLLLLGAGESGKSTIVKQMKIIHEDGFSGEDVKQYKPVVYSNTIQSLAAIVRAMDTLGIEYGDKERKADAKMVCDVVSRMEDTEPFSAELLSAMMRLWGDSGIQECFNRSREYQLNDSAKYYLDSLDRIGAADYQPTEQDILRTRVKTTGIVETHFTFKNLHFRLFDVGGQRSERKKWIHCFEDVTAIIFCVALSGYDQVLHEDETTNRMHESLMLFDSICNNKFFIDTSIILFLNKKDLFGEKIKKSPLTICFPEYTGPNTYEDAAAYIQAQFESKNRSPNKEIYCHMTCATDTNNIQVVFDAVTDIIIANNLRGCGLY

Target: Guanine nucleotide-binding protein G(o) subunit alpha (Homo sapiens) (UniProt P09471)
Assay: RGS7-Galphao binding modulators, primary screen, biochemical, multiplexed bead flow cytometry (AID 1439);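 note: fluorescent Galphao held in activated GDP-AlF4 state binding bead-coupled RGS7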
Conditions: at 10 µM, actives lie on both sides

Row | Compound | binding response (% of control)
1 | N#C/C(=C\c1cccc(O)c1)c1nc2ccccc2o1 | inconclusive: 90.3%
2 | CC(C)c1ccc(NC(=O)CSc2n[nH]c(=O)n2-c2ccc3c(c2)OCCO3)cc1 | inconclusive: 120%
3 | COc1cc(N=Nc2c(O)c3ccccc3[nH]c2=O)c(OC)cc1N=Nc1ccccc1 | inconclusive: 96.3%
4 | O=[N+]([O-])c1ccc(S(=O)(=O)NCCc2ccncc2)cc1 | inconclusive: 111%
5 | O=C(Nc1cc(-c2ccccc2)[nH]n1)c1ccc(Cl)cc1 | inconclusive: 23.4% and inconclusive: 101%
6 | NC1=NC(=O)C2(COC(c3cccc([N+](=O)[O-])c3)OC2)S1 (stereo not drawn) | inconclusive: 109%
7 | O=C(c1ccccc1Sc1c(Cl)cccc1[N+](=O)[O-])N1CCOCC1 | inactive: 95.9%
8 | Nc1nnn(CC(=O)N/N=C/c2ccccc2)n1 | inconclusive: 121%
9 | O=C(/C=C/Nc1ccc(S(=O)(=O)Nc2ncccn2)cc1)c1ccc2ccccc2c1 | inconclusive: 94.1%
10 | C=CCSc1nc2c(cnn2-c2ccccc2)c(=O)n1N | inconclusive: 94.4%
11 | CC1=NN(c2ccc([N+](=O)[O-])cc2)C(=O)/C1=C\N(C)C | inactive: 99.4%
12 | CCCCCCCC(=O)N/N=C/c1ccncc1 | inconclusive: 153%
13 | CCn1ncc(N(C)N)c(Cl)c1=O | inconclusive: 103%
14 | CCN(CC)CCNC(=O)c1ccc(NC(=O)/C=C/c2cc(OC)c(OC)c(OC)c2)cc1 | inconclusive: 105%
15 | O=C(NNc1cc(Cl)cc(Cl)c1)c1cccs1 | inconclusive: 114%
16 | S=c1[nH]nc(-c2ccncc2)n1/N=C/C=C/c1ccccc1 | inconclusive: 96.2%
17 | CCCc1[nH]n(-c2ccc([N+](=O)[O-])cc2)c(=O)c1C(C)=NCc1ccncc1 | inconclusive: 106%
18 | CN(C)S(=O)(=O)c1ccc(C(=O)NCC(C)(C)N2CCOCC2)cc1 | inconclusive: 138%
19 | CCN1CCCC1CNCc1ccc(OCc2ccc(Cl)nc2)c(OC)c1 (stereo not drawn) | inconclusive: 85.7%
20 | COc1cc(OC)cc(C(=O)NNC(=S)Nc2ccc(S(N)(=O)=O)cc2)c1 | inconclusive: 119%
21 | CCCCOc1nc(N2CCOCC2)nc(C)c1[N+](=O)[O-] | inconclusive: 106%
22 | O=C(O)c1ccccc1N/C=C\[N+](=O)[O-] | inactive: 99.5%
23 | CC1SCC(=NOCc2ccccc2)CS1 (stereo not drawn) | inconclusive: 74%
24 | CC(=O)Oc1ccc(/C=C2/Oc3ccccc3C2=O)cc1 | inconclusive: 193%

Row | Compound | binding response (% of control)
25 | Oc1ccc(N=Nc2nccs2)c(O)c1 | inconclusive: 270%
26 | COC(=O)CSc1nc(-c2ccccc2)c2c(c1C#N)CCCC2 | inactive: 103%
27 | O=C(COC(=O)c1ccc2[nH]c3c(c2c1)CCCC3)Nc1ccc(Cl)cc1Cl | inactive: 103%
28 | Cc1cc(=O)oc(C)c1C(=O)OCC(=O)c1ccccc1 | inactive: 100%
29 | CCN(CC)C(=S)Nc1cc(C(=O)OC)ccc1C(=O)OC | inactive: 103%
30 | O=C(CSc1nnc(C2CC2)n1Cc1ccccc1)Nc1cccnc1Cl | inconclusive: 95.5%
31 | CC(=O)c1c(C(=O)O)[nH]c(C(=O)O)c1C | inconclusive: 92.3%
32 | CC1CC=C(c2ccccc2)C(=S)N1 (stereo not drawn) | inconclusive: 86.1%
33 | CC(=O)Nc1ccc(C(=O)CSc2nnnn2C)cc1 | inconclusive: 107%
34 | COC(=O)c1ccc(Oc2ccc(C(F)(F)F)cn2)cc1 | inconclusive: 102%
35 | Cc1n[nH]c(C)c1CCC(=O)N/N=C/c1c[nH]c2ccccc12 | inconclusive: 116%
36 | O=[N+]([O-])c1nn(-c2ccccc2)n(O)c1=NC1CCN(Cc2ccccc2)CC1 | inconclusive: 106%
37 | Cc1ccc(-c2nnc(N3CCOCC3)c3ccccc23)cc1S(=O)(=O)NCC1CCCO1 (stereo not drawn) | inactive: 98.8%
38 | CCCCc1n[nH]c(=S)n1Cc1ccc(C)cc1 | inconclusive: 104%
39 | CN(C)CC(CCC(CN(C)C)C(=O)c1ccccc1)C(=O)c1ccccc1 (stereo not drawn) | inconclusive: 79.9%
40 | Cc1cccc(CSc2nnc(CCNC(=O)OC(C)(C)C)o2)c1 | inconclusive: 314%
41 | C/C(=N\Nc1cc(C)nc(-c2ccccc2O)n1)c1ccccc1O | inconclusive: 164%
42 | O=C(O)/C=C/c1ccc2c(c1)OCCO2 | inconclusive: 143%
43 | COc1ccc(CNC(=O)COC(=O)CCc2nc3ccccc3c(=O)[nH]2)cc1 | inconclusive: 76.1%
44 | Cc1cc(N/N=C/c2ccc(O)cc2O)nc(N2CCOCC2)n1 | inconclusive: 153%
45 | COc1ccc(CCNc2c([N+](=O)[O-])ncn2C)cc1OC | inconclusive: 126%
46 | O=C(CSc1nccc(=O)[nH]1)c1c[nH]c2ccccc12 | inconclusive: 95.4%
47 | O=C(N/N=C/c1cn(-c2ccccc2)nc1-c1cccnc1)c1cccnc1 | active: 174% [activator]
48 | O=C(NCc1ccco1)c1ccc(Br)c(S(=O)(=O)N2CCCCC2)c1 | inactive: 90.2%

Row | Compound | binding response (% of control)
49 | Cc1cccc2cc(CN(C(=O)c3cccc([N+](=O)[O-])c3)C(C)C)c(=O)[nH]c12 | inconclusive: 93.1%
50 | COc1ccc(CN2C(=O)c3ccccc3C2C(=O)NC2CCCC(C)C2C)c(OC)c1 (stereo not drawn) | inactive: 104%
51 | O=C(Nc1c(C(=O)Nc2cccc3ccccc23)cnn1-c1ccccc1)c1ccco1 | inactive: 99%
52 | CCOC(=O)NC(C(Cl)(Cl)Cl)S(=O)(=O)c1ccccc1 (stereo not drawn) | inconclusive: 104%
53 | COc1ccc(-c2nc3c4ccccc4ccn3c2CN2CCOCC2)cc1OC | inconclusive: 108%
54 | O=C(Nc1ccc2ncccc2c1)Nc1ccc2ncccc2c1 | inconclusive: 95%
55 | CCOC(=O)Nc1cccc(NC(=O)c2ccccc2F)c1 | inconclusive: 103%
56 | O=C(CNC(=O)/C(=C\c1ccc(F)cc1)NC(=O)c1ccccc1)OCc1ccccc1 | active: 172% [activator]
57 | CC1CN(C(=O)COC(=O)[C@@H]2CC(O)CN2S(=O)(=O)c2ccc3c(c2)OCCO3)CC(C)O1 (stereo partly drawn) | inactive: 101%
58 | CCn1c(=O)c2cc(C(=O)N(C)c3cc(C)ccc3OC)sc2c2ccccc21 | inconclusive: 92.1%
59 | Cn1c(=O)n(C)c2cc(S(=O)(=O)NCc3ccco3)ccc21 | active: 204% [activator]
60 | Cc1no[n+]([O-])c1COc1cccc(/C=N/Nc2nncn2N)c1 | inconclusive: 137%
61 | C/C(=N\NC(=O)c1ccoc1C)c1ccccc1 | inconclusive: 128%
62 | COc1ccc(-n2cc(CNCCN3CCOC3=O)c(-c3ccccc3Cl)n2)cc1 | inconclusive: 113%
63 | O=C(O)CC(=O)Nc1ccccc1C(=O)O | inactive: 94.2%
64 | COc1ccccc1CN1CN(S(=O)(=O)c2ccccc2)c2nc3ccccc3nc21 | inconclusive: -112%
65 | COc1ccc(Nc2ccc(OC)cc2)cc1 | inconclusive: 248%
66 | C=CCCN([C@@H](C)C(=O)OC)S(=O)(=O)c1ccccc1Br | inconclusive: 66%
67 | CC(C)C(=O)NC(=S)N(Cc1ccccc1)Cc1ccccc1 | inactive: 106%
68 | CC(C)(C)c1ccc(-c2nnc(N)o2)cc1 | inconclusive: -60.6%
69 | CN1CCN(C2CC(=O)N(CCc3ccccc3)C2=O)CC1 (stereo not drawn) | inconclusive: 56%
70 | Cc1cc(C)n2nc(SCc3ccccc3)nc2n1 | inconclusive: 378%
71 | Nc1nnc(CC(=O)N/N=C\c2ccc(-c3cccc(Cl)c3)o2)s1 | inconclusive: 97.7%
72 | O=C(COC(=O)/C=C/c1ccccc1[N+](=O)[O-])NCC(F)(F)F | inconclusive: 121%

Reformatted with tabs: 4 of the compounds above.
Row	Compound	binding response (% of control)
58	CCn1c(=O)c2cc(C(=O)N(C)c3cc(C)ccc3OC)sc2c2ccccc21	inconclusive: 92.1%
59	Cn1c(=O)n(C)c2cc(S(=O)(=O)NCc3ccco3)ccc21	active: 204% [activator]
60	Cc1no[n+]([O-])c1COc1cccc(/C=N/Nc2nncn2N)c1	inconclusive: 137%
61	C/C(=N\NC(=O)c1ccoc1C)c1ccccc1	inconclusive: 128%

Continuation.

Row | Compound | binding response (% of control)
73 | CN(C)CC(C)(C)CNC(=O)C1CCN(Cc2ccccc2O)CC1 | inactive: 103%
74 | Cc1ccc(NC(=O)CN2CCc3ccccc3C2)cc1F | inconclusive: 92.7%
75 | COc1ccc(N=Nc2c(N)n[nH]c2N)cc1 | inconclusive: 129%
76 | O=C(Nc1ccc2c(c1)OCO2)c1cc(-c2cccnc2)nc2ccccc12 | inconclusive: 80.3%
77 | Cn1c(Cc2nc(-c3cnccn3)no2)nnc1SCC(=O)Nc1ccccc1 | inconclusive: 151%
78 | Nc1ccccc1N=Cc1ccc(-c2cccc(Cl)c2)o1 | inactive: 103%
79 | O=C1COc2ccc(C(=O)COC(=O)c3cc(S(=O)(=O)NCc4ccccc4)ccc3O)cc2N1 | inconclusive: 70.3%
80 | COc1cc(CNCCN(C)C)ccc1OCc1c(F)cccc1Cl | inconclusive: 84.3%
81 | CCOC(Cn1ccc(=O)[nH]c1=O)OCC | inconclusive: 41.4%
82 | Cc1c(Cl)cccc1NC(=O)CCCN1C(=O)c2cccnc2C1=O | inconclusive: 95.5%
83 | Cc1ccc(NC(=S)N(CCN2CCCCC2)Cc2ccco2)cc1C | inconclusive: 109%
84 | CS(=O)c1ccccc1O (stereo not drawn) | inconclusive: 98.7%
85 | S=C(NCc1ccccc1)Nc1ccc2cn[nH]c2c1 | inconclusive: 87.7%
86 | CCN(CC)CCOC(=O)c1ccc(N/C=C(/C#N)c2nc(-c3ccc(OC)cc3)cs2)cc1 | inconclusive: 92.2%
87 | CC(N)C12CC3CC(CC(C3)C1)C2 (stereo not drawn) | inconclusive: 110%
88 | O=C(Nc1cccnc1)c1ccccc1NS(=O)(=O)c1ccc(F)cc1 | inconclusive: 94.4%
89 | COc1ccc(Cl)cc1C(=O)Nc1ccc(NC(=O)C(C)C)cc1 | inconclusive: 91.2%
90 | FC(F)(F)c1cccnc1Oc1ccc(C2=NCCS2)cc1 | inconclusive: 131%
91 | Cc1ccc(S(=O)(=O)N(Cc2cc3cc4c(cc3[nH]c2=O)OCCO4)CC2CCCO2)cc1 (stereo not drawn) | inactive: 101%
92 | CCc1cccc(CC)c1NC(=S)NCc1nc2ccccc2[nH]1 | inactive: 113%
93 | COc1ccc(S(=O)(=O)Nc2ccc(NC(C)=O)cc2)cc1Br | inconclusive: 97.7%
